According to PMC7819943, “Rice protein-binding microarrays: a tool to detect cis-acting elements near promoter regions in rice”:
The list shows a part of the results.

Amino acid sequences for entries named in this document (tags omitted).
UniProt Q0JBA9, entry or part of it: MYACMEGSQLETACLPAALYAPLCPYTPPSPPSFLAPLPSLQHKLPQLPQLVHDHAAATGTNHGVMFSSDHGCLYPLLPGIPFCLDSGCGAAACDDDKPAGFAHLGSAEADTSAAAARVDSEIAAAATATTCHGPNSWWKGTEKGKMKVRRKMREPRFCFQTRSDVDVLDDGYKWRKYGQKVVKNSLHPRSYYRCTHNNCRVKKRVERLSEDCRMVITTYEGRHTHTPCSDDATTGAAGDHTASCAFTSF

molecular target: OsWRKY34 (Oryza sativa, UniProt Q0JBA9 1-250); assay: protein-binding microarray (RPBM); PBS, 2% BSA, 51.3 ng/ul salmon testes DNA, 50 uM zinc acetate, 200 nM TF, 25 C, 1 h; high values mean tight binding; conditions: protein: recombinant; tags: N-terminal polyhistidine and DsRed monomer fusion (pET32a); label: CyDye5-dUTP incorporated in the synthesized complementary strand; 3' TTTTT single-stranded linker to array surface; dsDNA, one strand shown
In short: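 Transcription factors, each fused N-terminally to a polyhistidine tag and DsRed, were expressed in E. coli BL21-CodonPlus and purified on Ni–NTA. A custom Agilent array was made double-stranded by primer extension with Cy5-dUTP and blocked with 2% BSA. It was incubated with 200 nM protein in PBS, 2% BSA, salmon testes DNA and 50 µM zinc acetate at 25 °C for 1 h, then washed. The binding signal is per-feature fluorescence intensity (arbitrary units) read on an Axon 4000B scanner.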

Sequence | binding signal
TGTTGTTCGAATTTGACTTGTACACGCACATACCGTCTTTCGGAGTCACCTAGTGCAG | 8830 fluorescence intensity (a.u.)
ATCACCGTCCCCGCTGCCGCCACCCGCCACTGCCGCAGCGCGGAGTCACCTAGTGCAG | 10800 fluorescence intensity (a.u.)
TCTGTGTCTCTCTTGCCATATTCGTGTTGTTTTCCTCTATCGGAGTCACCTAGTGCAG | 11400 fluorescence intensity (a.u.)
TCACCTGTCATACACACATGTATCTTGAGTTCATGTTGCACGGAGTCACCTAGTGCAG | 8700 fluorescence intensity (a.u.)
GGGACGTGCTATATCTGGTTCTGCGGTTCAATGACGAATTCGGAGTCACCTAGTGCAG | 10200 fluorescence intensity (a.u.)
GCCCCATCCACCGCACCACACGTCTCTTTTTTTCGCGACTCGGAGTCACCTAGTGCAG | 14600 fluorescence intensity (a.u.)
GTTGGTATGGCTGCTTGTGAGACGTCTTGGACTAATCTATCGGAGTCACCTAGTGCAG | 10500 fluorescence intensity (a.u.)
TTCTTTGTCATGGTTTTCTCATTTTCCCCTATGAGTTTTTCGGAGTCACCTAGTGCAG | 8690 fluorescence intensity (a.u.)
GTTGTCGCACACATAATTATCATCCATCGATCCATCCATACGGAGTCACCTAGTGCAG | 10900 fluorescence intensity (a.u.)
GTGTGTGCGTCTGTCTCTCTCTCACAGGAAATCGTCGAAACGGAGTCACCTAGTGCAG | 9790 fluorescence intensity (a.u.)
CCATCTTCTTCTATCATAATCCGTTTCGTCGTCCTCCTGACGGAGTCACCTAGTGCAG | 9490 fluorescence intensity (a.u.)
CTTAGGATTGCCGGTTGCTACACACTTTTATTGGTACATTCGGAGTCACCTAGTGCAG | 8810 fluorescence intensity (a.u.)
TGTCCGGTGCGTTTTGATTGGGTCGTCTGCCCTCGGTTGACGGAGTCACCTAGTGCAG | 13500 fluorescence intensity (a.u.)
TTTTTTCCTCTGCTGCCAACAGTGATGCTTTTGTTCCACCCGGAGTCACCTAGTGCAG | 8790 fluorescence intensity (a.u.)
ACAGCTTAAAATTTCCTCCTCCGCCCAAAAACCCTCTCGACGGAGTCACCTAGTGCAG | 24300 fluorescence intensity (a.u.)
ATTCGAGATCAGCTTTCTCTTCTATTTTGCTACTAGTTCTCGGAGTCACCTAGTGCAG | 13000 fluorescence intensity (a.u.)
GGTCTAAGGTCTCTCTGACTGATTGGTTTTGCTTCGCTCTCGGAGTCACCTAGTGCAG | 8730 fluorescence intensity (a.u.)
ACTGAATTCTACTCCATTCTTTCTCTCTCCACTTGTTGCTCGGAGTCACCTAGTGCAG | 11200 fluorescence intensity (a.u.)
TCGGTGGGTTTGGTGGGAAATTGAGTTCGTGGACTTCATGCGGAGTCACCTAGTGCAG | 8150 fluorescence intensity (a.u.)
TCCTCGCTATCTTCTTCTGCCACCACCGCCCATCCTCTCACGGAGTCACCTAGTGCAG | 9500 fluorescence intensity (a.u.)
TTCATGGAACATTCACGTGGATCATTCTCTCTCTCTCTCTCGGAGTCACCTAGTGCAG | 8100 fluorescence intensity (a.u.)

Rewritten tab-delimited: part of the list above
Sequence	binding signal
ACAGCTTAAAATTTCCTCCTCCGCCCAAAAACCCTCTCGACGGAGTCACCTAGTGCAG	24300 fluorescence intensity (a.u.)
TCGGTGGGTTTGGTGGGAAATTGAGTTCGTGGACTTCATGCGGAGTCACCTAGTGCAG	8150 fluorescence intensity (a.u.)

Following part.

Sequence | binding signal
GTTGGTCTTCATAGACATTTAATCCTGCATATTGACATTTCGGAGTCACCTAGTGCAG | 8150 fluorescence intensity (a.u.)
CGATTTGTTTGTTTCGCCCCTACCAGTTCTGCAGTACTGCCGGAGTCACCTAGTGCAG | 8560 fluorescence intensity (a.u.)
TATATATATTTTGTTCCAATCACATTTCACATACCACAGTCGGAGTCACCTAGTGCAG | 9520 fluorescence intensity (a.u.)
TGACTTTCGAGATATTTTTGACAAATCGTTTTATATTTTTCGGAGTCACCTAGTGCAG | 8400 fluorescence intensity (a.u.)
CCCTTTTTTTTTGTGTGTGCGGTGCTTTATATACAGTTCACGGAGTCACCTAGTGCAG | 9510 fluorescence intensity (a.u.)
CTAGCTGAAGACTTGTGCATGCAGTTTACACCTTTTATCTCGGAGTCACCTAGTGCAG | 9280 fluorescence intensity (a.u.)
GCCTTTTTAAATTTTTTTATCACATCAAAACTTTTTTATACGGAGTCACCTAGTGCAG | 8370 fluorescence intensity (a.u.)
CATATGTGCCGTTCCCCGTGTATTTGGCCCAATCCCTCCCCGGAGTCACCTAGTGCAG | 8970 fluorescence intensity (a.u.)
TTTCTCACCTACTACTTTCGCTGGCCGGTTATACGAAACACGGAGTCACCTAGTGCAG | 8320 fluorescence intensity (a.u.)
TTTTTTTTTTCCTGTCTTCTTCCTTCTTTCTCCCGTCTCTCGGAGTCACCTAGTGCAG | 9230 fluorescence intensity (a.u.)
ACTCCAGTCGCCGGCTCGCCGCACACCATCGCCCATCAGACGGAGTCACCTAGTGCAG | 9820 fluorescence intensity (a.u.)
ATGGGGTATTTAGGATGGGCAATATTTTGGTAGTGAGGAGCGGAGTCACCTAGTGCAG | 9430 fluorescence intensity (a.u.)
CCCCACCGTCTCATCCCAGCTCAGCTCAGCTCTGCCTCCGCGGAGTCACCTAGTGCAG | 9660 fluorescence intensity (a.u.)
CTTTTCTCTCTCCAGATATCTCTCTCATACTATTTAATAACGGAGTCACCTAGTGCAG | 8070 fluorescence intensity (a.u.)
CGTTCCCGGCCTCGAGCTGCTCTCCCGTCTTTACAATCCACGGAGTCACCTAGTGCAG | 8510 fluorescence intensity (a.u.)
TTCCTTTTTTCCCGCCCGTTCCTTTTTTGTTTGTTATGTTCGGAGTCACCTAGTGCAG | 15700 fluorescence intensity (a.u.)
GGAGGAGAGCTTGGTGGTGCGCTGATCGGCGGATGCGGGGCGGAGTCACCTAGTGCAG | 8490 fluorescence intensity (a.u.)
TAACTGACATGTGGGCCCCATTATTTTTAGATTTTTTTTTCGGAGTCACCTAGTGCAG | 9130 fluorescence intensity (a.u.)
CTCTATACCCCGCCAGATCCACTCCACGGCCCCACCCCAACGGAGTCACCTAGTGCAG | 9080 fluorescence intensity (a.u.)
TTTGCTCATCTTACACCAGGCGAATTTCCACAGCTATTTGCGGAGTCACCTAGTGCAG | 8150 fluorescence intensity (a.u.)
ATTGTTAGGTCGTTGGTTCATAAAGGTTTTTGATCTGTTACGGAGTCACCTAGTGCAG | 8300 fluorescence intensity (a.u.)
